The list shows only some results of the screen, not a fair sample: it is rich in T/C values a quarter to a half above the control, in often repeated tests (any T/C) and in doses without a T/C. Further doses and runs are listed elsewhere. T/C gives the treated animals as a percentage of the vehicle group. Some entries give survivors of the animals treated and no T/C: the source holds a T/C of zero for them, seemingly a mark for toxic or unscored doses. Some doses without a T/C left all or most animals alive at the check, yet need not have been tolerated: survival well below the control is almost never listed, so the zero probably covers shortened survival too. Counts of survivors are from the toxicity check (mostly the fifth day) where no day follows; animals may have died later. Schedules are NCI's codes, taken here to give the interval after Q, in days (D) or hours (H), and the number of doses after X. For survival time, the PubChem record calls one and a half times the control and up active, and a quarter to a half above the control has no call in these data; cut-offs in other NCI protocols can differ. Additions like (4×) say how often a value occurs here. Some entries hold several experiments; the results are listed from low to high.
Test system: P388 leukemia ip, CD2F1 mice, survival T/C
Assay: NCI In Vivo Anticancer Drug Screen. Data for tumor model P388 Leukemia (intraperitoneal) in CD2F1 (CDF1) mice
Settings: T/C endpoint: median survival time, higher T/C = longer survival
[1] = dose: 200.0 mg/kg/injection, schedule: Q01DX005 (ip), vehicle: saline with Tween-80

In the case of `O=C1c2ccccc2C(=O)c2c(NCCNCCO)ccc(O)c21`, the T/C (dose: 2.5 mg/kg/injection, schedule: Q01DX009 (ip), vehicle: acid diluted with saline) is reported as 131 % of control (2×), the T/C (dose: 5.0 mg/kg/injection, schedule: Q01DX009 (ip), vehicle: acid diluted with saline) is reported as 131 and 145 % of control and the T/C (dose: 10.0 mg/kg/injection, schedule: Q01DX009 (ip), vehicle: acid diluted with saline) is reported as 138 and 144 % of control. For the same compound, the T/C (dose: 12.5 mg/kg/injection, schedule: Q04DX002 (ip), vehicle: other) was 125 % of control, the T/C (dose: 12.5 mg/kg/injection, schedule: Q04DX002 (ip), vehicle: water) was 129 % of control and the T/C (dose: 20.0 mg/kg/injection, schedule: Q01DX009 (ip), vehicle: acid diluted with saline, evaluated on day 35) was 144 % of control. The T/C (dose: 20.0 mg/kg/injection, schedule: Q01DX009 (ip), vehicle: acid diluted with saline, evaluated on day 45) was 145 % of control, the T/C (dose: 20.0 mg/kg/injection, schedule: Q04DX003 (iv), vehicle: saline) was 130 % of control and the T/C (dose: 25.0 mg/kg/injection, schedule: Q04DX002 (ip), vehicle: water) was 134 and 135 % of control. For the same compound, the T/C (dose: 40.0 mg/kg/injection, schedule: Q01DX001 (iv), vehicle: saline) was 128 % of control, the survivor count (dose: 40.0 mg/kg/injection, schedule: Q01DX005 (ip), vehicle: saline) was 7 of 8 and the survivor count (dose: 40.0 mg/kg/injection, schedule: Q01DX005 (iv), vehicle: saline) was 3 of 8. The survivor count (dose: 40.0 mg/kg/injection, schedule: Q01DX009 (ip), vehicle: acid diluted with saline) was 6 of 6, the survivor count (dose: 40.0 mg/kg/injection, schedule: Q01DX009 (ip), vehicle: distilled water + Tween-80) was 4 of 6 and the survivor count (dose: 40.0 mg/kg/injection, schedule: Q04DX003 (iv), vehicle: saline) was 8 of 8. For the same compound, the T/C (dose: 50.0 mg/kg/injection, schedule: Q04DX002 (ip), vehicle: water) was 136 and 138 % of control, the survivor count (dose: 54.0 mg/kg/injection, schedule: Q04DX003 (ip), vehicle: saline) was 6 of 8 and the survivor count (dose: 80.0 mg/kg/injection, schedule: Q01DX001 (iv), vehicle: saline) was 0 of 8. The survivor count (dose: 80.0 mg/kg/injection, schedule: Q01DX009 (ip), vehicle: distilled water + Tween-80) was 0 of 6, the survivor count (dose: 80.0 mg/kg/injection, schedule: Q04DX003 (ip), vehicle: saline) was 3 of 8 and the survivor count (dose: 80.0 mg/kg/injection, schedule: Q04DX003 (iv), vehicle: saline) was 0 of 8. The survivor count (dose: 90.0 mg/kg/injection, schedule: Q04DX003 (ip), vehicle: saline) was 6 of 8, the survivor count (dose: 100.0 mg/kg/injection, schedule: Q04DX002 (ip), vehicle: other) was 5 of 6 and the survivor count (dose: 100.0 mg/kg/injection, schedule: Q04DX002 (ip), vehicle: water) was 5 of 6. The survivor count (dose: 150.0 mg/kg/injection, schedule: Q04DX003 (ip), vehicle: saline) was 2 of 8, the survivor count (dose: 160.0 mg/kg/injection, schedule: Q01DX001 (ip), vehicle: saline) was 1 of 8 and the survivor count (dose: 160.0 mg/kg/injection, schedule: Q01DX009 (ip), vehicle: distilled water + Tween-80) was 0 of 6. For the same compound, the survivor count (dose: 200.0 mg/kg/injection, schedule: Q04DX002 (ip), vehicle: other) was 0 of 6 and the survivor count (dose: 200.0 mg/kg/injection, schedule: Q04DX002 (ip), vehicle: water) was 0 of 6.

For `C=C1C(=O)C23C(OC(=O)c4ccccc4)C1CCC2C12COC3(O)C(O)C1C(C)(C)CCC2O` (configuration not stated), the survivor count (dose: 30.0 mg/kg/injection, schedule: Q01DX009 (ip), vehicle: saline with Tween-80) was 1 of 6.

In the case of `CCCCN(CCCC)CNC(=O)c1ccccc1`, the survivor count [1] is reported as 3 of 5.

For `CCCCOP(=O)(OCCCC)C(CC(=O)N(CCCC)CCCC)C(=O)N(CCCC)CCCC` (configuration not stated), the survivor count [1] was 0 of 5.

From PubChem BioAssay AID330 (DTP/NCI, 2004)
